According to PubChem BioAssay AID540276 (National Center for Advancing Translational Sciences (NCATS), 2011):
The whole screen tested about 300,000 compounds, of which about 5,400 (1.8%) were called active. This list was built around the results that the source calls inconclusive (neither active nor inactive); the mix of calls is not that of the screen. Calls follow the shape of the full dose curve; tested in HEK293 cells. Potencies of inconclusive entries are doubtful fits and often do not repeat.

Experiment: qHTS for inhibitors of binding or entry into cells for Marburg Virus
Conditions: Marburg virus pseudotyped entry inhibition, cell reporter; activity change, negative = inhibition: at 37.8 µM (top of the series) unless noted
% is scaled to controls: 0 for no effect and ±100 for the full control effect; potency is read from the fitted curve at half-maximal effect.

Question: For `COc1cc(C2/C(=C(\O)c3ccc4c(c3)OCCO4)C(=O)C(=O)N2CCN2CCOCC2)cc(OC)c1OC` (centres undefined), which Potency is on record?
Answer: inconclusive: 1.26 µM [inhibitor, single point]

Question: With `CC(C)=CCC/C(C)=C/CC/C(C)=C/CSc1ccccc1C(=O)O` as the molecule, how does the Potency read?
Answer: inconclusive: 0.251 µM [inhibitor, full curve]

Question: For `NC(=O)c1ccccc1OCC(=O)c1ccc(Cl)cc1`, which Potency is on record?
Answer: inconclusive: 35.5 µM [activator, single point]

Question: With `[O-][N+]1=c2ccc(Nc3ccccc3)cc2=NC12CCCCC2` as the molecule, how does the Potency read?
Answer: active: 2.24 µM

Question: Which Potency does the source give for `COc1cc(NC(=O)C2=C(N3CCOCC3)/C(=C/c3ccc(Cl)cc3)CC2)cc(OC)c1OC` here?
Answer: active: 15.8 µM

Question: Which Potency does the source give for `Cc1cc(C(=O)COC(=O)c2ccc(O)cc2)c(C)n1CC1CCCO1` (centres undefined) here?
Answer: inconclusive: 20 µM [inhibitor, single point]

Question: With `COc1ccc2cc(/C=C/C(=O)N3CCN(CC(=O)N4CCCCCC4)CC3)ccc2c1` as the molecule, how does the Potency read?
Answer: inconclusive: 3.55 µM [inhibitor, partial curve, poor fit]

Question: Which Potency does the source give for `CC(C)(C)c1ccc(C(=O)c2c[nH]c(C(=O)NCCCN3CCOCC3)c2)cc1` here?
Answer: inconclusive: 20.6 µM [inhibitor, single point]

Question: Which Potency does the source give for `N#C/C(C(=O)NCCc1ccccc1)=C1/N=C(NC(=O)c2cccs2)c2ccccc21` here?
Answer: inconclusive: 1.3 µM [activator, full curve, poor fit]

Question: For `Cc1ncoc1C(=O)N1CCCC(C(=O)Nc2cccc(-c3ccc(F)cc3)c2)C1` (centres undefined), which “activity change, negative = inhibition” value is on record?
Answer: inactive: 1.71%

Question: Which “activity change, negative = inhibition” value does the source give for `COc1ccc2[nH]c(=O)c(CN(C(=O)c3ccco3)C(C)C)cc2c1` here?
Answer: inactive: 6.54% [at 46.1 µM]

Question: For `Cc1cccc(OCC(=O)NCCc2nc3ccccc3[nH]2)c1C`, which “activity change, negative = inhibition” value is on record?
Answer: inactive: -0.919% [at 46.1 µM]

Question: With `CS(=O)(=O)c1ccc2nc(NC(=O)CC3CCCC3)sc2c1` as the molecule, how does the “activity change, negative = inhibition” value read?
Answer: inactive: 6.57%

Question: With `CNC(=O)c1nnn(Cc2ccccc2)c1NC(=O)C(F)(F)F` as the molecule, how does the Potency read?
Answer: inconclusive: 0.562 µM [activator, partial curve, poor fit]

Question: Which “activity change, negative = inhibition” value does the source give for `Cc1cc(C)cc(OCC(=O)Nc2ccc(N3CCN(C(=O)c4ccco4)CC3)cc2)c1` here?
Answer: inactive: -26.2%

Question: With `Cc1onc(-c2c(Cl)cccc2Cl)c1C(=O)NC1CCCCC1` as the molecule, how does the Potency read?
Answer: inconclusive: 14.1 µM [inhibitor, partial curve, poor fit]

Question: With `O=C(NCC(=O)N1CCN(C(c2ccccc2)c2ccccc2)CC1)c1ccccc1F` as the molecule, how does the “activity change, negative = inhibition” value read?
Answer: inactive: -28.2% [at 46.1 µM]

Question: With `Cc1cc(NC(=O)CSc2nnc(-c3cccnc3)n2Cc2ccccc2)no1` as the molecule, how does the “activity change, negative = inhibition” value read?
Answer: inactive: 5.69%

Question: For `Cn1c(SCC(=O)Nc2nnc(-c3ccccc3)o2)nnc1C1CC1`, which Potency is on record?
Answer: inconclusive: 12.6 µM [activator, partial curve, poor fit]

Question: With `CC(=O)c1ccc(NS(=O)(=O)c2cc3c(cc2C)N(C(C)=O)CCO3)cc1` as the molecule, how does the Potency read?
Answer: inconclusive: 1 µM [inhibitor, partial curve, poor fit]

Question: For `C/C(=N/NC(=O)CNc1ccc(C)cc1)c1ccc(Br)s1`, which Potency is on record?
Answer: inconclusive: 18.3 µM [inhibitor, single point]

Question: Which “activity change, negative = inhibition” value does the source give for `N#Cc1c(Nc2ccc(Cl)cc2)s[nH]c1=O` here?
Answer: inactive: 0.596% [at 46.1 µM]

Question: Which Potency does the source give for `O=C(Oc1cccc(/C=N/Nc2nc(Nc3ccccc3)nc(N3CCOCC3)n2)c1)c1ccco1` here?
Answer: inconclusive: 1.3 µM [inhibitor, full curve]

Question: For `COc1cccc(CC(=O)Nc2nc(-c3ccc(F)c(F)c3)cs2)c1`, which Potency is on record?
Answer: inconclusive: 11.2 µM [inhibitor, partial curve, poor fit]

Question: For `COc1ccc(CN(Cc2cccn2C)S(=O)(=O)c2ccc(F)cc2)cc1`, which Potency is on record?
Answer: inconclusive: 35.5 µM [inhibitor, single point]

Question: For `COc1ccc(Cn2c(C)nc3oc4cc(OC)ccc4c(=O)c3c2=O)cc1`, which “activity change, negative = inhibition” value is on record?
Answer: inactive: 9.77%

Question: For `C/C(=N/NC(=O)CNC(=O)c1cccs1)c1ccco1`, which “activity change, negative = inhibition” value is on record?
Answer: inactive: -17.1%

Question: For `Cn1cc(S(=O)(=O)N2CCN(c3cccc(Cl)c3)CC2)c(=O)n(C)c1=O`, which “activity change, negative = inhibition” value is on record?
Answer: inactive: -6.02% [at 46.1 µM]

Question: Which Potency does the source give for `CC(c1ccccc1)C1CC(=O)N(c2ccccc2)C1=O` (centres undefined) here?
Answer: inconclusive: 2 µM [activator, partial curve, poor fit]

Question: Which “activity change, negative = inhibition” value does the source give for `Cc1ccc(C(=O)NCc2ccco2)c(C)c1` here?
Answer: inactive: 19.2%

Question: Which Potency does the source give for `O=C(NCCc1nc2ccccc2[nH]1)/C(=C/c1ccc2c(c1)OCO2)NC(=O)c1ccc(Cl)cc1Cl` here?
Answer: inconclusive: 11.6 µM [inhibitor, single point]

Question: Which Potency does the source give for `CC(C)CN(C(=O)CN1CCN(c2ccccc2F)CC1)c1c(N)n(CC(C)C)c(=O)[nH]c1=O` here?
Answer: inconclusive: 11.2 µM [activator, partial curve, poor fit]

Question: With `CCOC(=O)N1CCC(N(CCN(C)C)C(=S)Nc2ccccc2C)CC1` as the molecule, how does the Potency read?
Answer: inconclusive: 31.6 µM [activator, single point]

Question: Which Potency does the source give for `Cc1onc(-c2ccccc2Cl)c1C(=O)N(Cc1ccccc1)C(C)C` here?
Answer: inconclusive: 10 µM [inhibitor, partial curve, poor fit]

Question: For `CN(C)C(CNC(=O)c1ccc(S(=O)(=O)Nc2ccccc2F)cc1)c1ccco1` (centres undefined), which Potency is on record?
Answer: inconclusive: 1.58 µM [activator, partial curve]

Question: With `O=C(Oc1ccccc1C(=S)N1CCOCC1)c1ccc([N+](=O)[O-])cc1[N+](=O)[O-]` as the molecule, how does the Potency read?
Answer: inconclusive: 2.82 µM [inhibitor, single point]

Question: Which “activity change, negative = inhibition” value does the source give for `CCOc1ccc(Cl)cc1CNCCCSc1nnnn1C` here?
Answer: inactive: -21.6% [at 46.1 µM]

Question: For `Cc1ccc(NC(=O)c2ccc(S(=O)(=O)N3CCC(C)CC3)cc2)cc1`, which Potency is on record?
Answer: inconclusive: 29.1 µM [inhibitor, single point]

Question: Which Potency does the source give for `COc1ccccc1CCNC(=O)CNC(=O)Cc1cccc2ccccc12` here?
Answer: inconclusive: 10 µM [inhibitor, partial curve, poor fit]

Question: Which Potency does the source give for `CCOC(=O)C1CCNC(=O)C1=O` (centres undefined) here?
Answer: inconclusive: 0.112 µM [inhibitor, full curve, poor fit]

Question: For `COC(=O)CN1C(c2ccccc2O)Nc2ccc(Br)cc2C1c1ccccc1` (centres undefined), which Potency is on record?
Answer: inconclusive: 0.794 µM [inhibitor, full curve, poor fit]

Question: With `COc1cccc(C2C(C(=O)/C=C/c3ccco3)=C(O)C(=O)N2CCN2CCOCC2)c1` (centres undefined) as the molecule, how does the “activity change, negative = inhibition” value read?
Answer: inactive: 10.7% [at 46.1 µM]

Question: For `COCCN(C(=O)COC(=O)c1cc2c(s1)CCCC2)c1c(N)n(Cc2ccccc2)c(=O)[nH]c1=O`, which “activity change, negative = inhibition” value is on record?
Answer: inactive: 26.3%

Question: With `CC1=C(C(=O)Nc2ccccc2)C(c2cc(CN3CCOCC3)cs2)C2=C(CCCC2=O)N1` (centres undefined) as the molecule, how does the “activity change, negative = inhibition” value read?
Answer: inactive: 0.933% [at 46.1 µM]

Question: For `CCNc1nc(NC(C)C)nc(Oc2ccc(OCc3ccccc3)nn2)n1`, which “activity change, negative = inhibition” value is on record?
Answer: inactive: -22.3% [at 46.1 µM]

Question: With `Cc1cc(C(F)(F)F)c(C#N)c(SCC(=O)Nc2nc3cc(Br)ccc3s2)n1` as the molecule, how does the Potency read?
Answer: inconclusive: 20.6 µM [activator, single point]

Question: With `Cc1noc(COc2ccccc2OCc2onc(C)c2Cl)c1Cl` as the molecule, how does the Potency read?
Answer: inconclusive: 6.51 µM [inhibitor, partial curve, poor fit]

Question: Which Potency does the source give for `COc1nc(OC)nc(N2CCC(C(=O)NCC3CCCCC3)CC2)n1` here?
Answer: inconclusive: 10.3 µM [inhibitor, partial curve, poor fit]

Question: For `O=C(Nc1nc2ccccc2s1)c1ccc(N2CCCCC2)c([N+](=O)[O-])c1`, which Potency is on record?
Answer: inconclusive: 25.1 µM [inhibitor, single point]

Question: Which “activity change, negative = inhibition” value does the source give for `CCN(CC)S(=O)(=O)c1ccc2c(c1)N(CC(=O)Nc1ccc(OC)cc1)C(=O)CS2` here?
Answer: inactive: -19.7% [at 46.1 µM]

Question: For `O=C(Oc1c(Cl)cc(Cl)c2cccnc12)c1ccco1`, which Potency is on record?
Answer: inconclusive: 17.8 µM [inhibitor, partial curve, poor fit]

Question: With `O=C(Nc1nnc(C2=COCCO2)o1)c1cccc(Br)c1` as the molecule, how does the Potency read?
Answer: inconclusive: 12.6 µM [inhibitor, single point]

Question: With `O=C(CN(c1ccccc1F)S(=O)(=O)c1ccccc1)Nc1ccccc1C(=O)N1CCOCC1` as the molecule, how does the Potency read?
Answer: inconclusive: 35.5 µM [inhibitor, single point]

Question: For `Cc1ccc(NC(=O)NC(=O)N(c2ccccc2)S(C)(=O)=O)cc1`, which “activity change, negative = inhibition” value is on record?
Answer: inactive: 1.37%

Question: With `COCCNC(=S)N(CCc1c(C)[nH]c2ccc(F)cc12)Cc1ccc(C)cc1` as the molecule, how does the Potency read?
Answer: inconclusive: 22.4 µM [inhibitor, partial curve, poor fit]

Question: Which “activity change, negative = inhibition” value does the source give for `CC(=O)Nc1ccc(C)c([N+](=O)[O-])c1` here?
Answer: inactive: -0.912%

Question: For `CN(C)c1ccc(NC(=O)c2cnsn2)cc1`, which Potency is on record?
Answer: inconclusive: 15.8 µM [inhibitor, single point]

Question: For `O=c1c2ccccc2nc(SCc2nnc(-c3ccccc3)o2)n1-c1ccc(F)cc1F`, which Potency is on record?
Answer: inconclusive: 35.5 µM [inhibitor, single point]

Question: Which “activity change, negative = inhibition” value does the source give for `O=C(NCC(c1ccc(F)cc1)N1CCOCC1)c1cccnc1Sc1ccccc1` (centres undefined) here?
Answer: inactive: -8.79%

Question: For `CCOC(=O)CNc1c(-c2ccc(OC)cc2)nc2ccc(Cl)cn12`, which “activity change, negative = inhibition” value is on record?
Answer: inactive: 15.2%

Question: Which Potency does the source give for `COc1ccc(OCC(=O)N2CCN(C3CCC(c4ccccc4)CC3)CC2)cc1` (centres undefined) here?
Answer: inconclusive: 35.5 µM [inhibitor, single point]

Question: For `O=C1N=C(N2CCOCC2)S/C1=C\c1cccs1`, which “activity change, negative = inhibition” value is on record?
Answer: inactive: 3.27%

Question: For `O=C(CCc1nnc(Cc2ccc(-c3ccccc3)cc2)o1)NCCc1ccccn1`, which “activity change, negative = inhibition” value is on record?
Answer: inactive: 13.1% [at 46.1 µM]

Question: Which “activity change, negative = inhibition” value does the source give for `CCOC(=O)N1CCN(C(=O)c2ccccc2NC(=O)COc2ccccc2)CC1` here?
Answer: inactive: -13.2% [at 46.1 µM]

Question: Which Potency does the source give for `O=C(CN1C(=O)NC2(CCCCCC2)C1=O)Nc1ccc([N+](=O)[O-])cc1` here?
Answer: inconclusive: 0.631 µM [activator, single point]

Question: For `O=C(Nc1ccccn1)c1c(O)c2cccc3c2n(c1=O)CCC3`, which Potency is on record?
Answer: inconclusive: 5.62 µM [activator, partial curve, poor fit]

Question: Which Potency does the source give for `C/C(CC1CC2=C(CC1(C)C)C(C)(C)CCC2)=N\NC(N)=S` (centres undefined) here?
Answer: inconclusive: 23.1 µM [inhibitor, single point]

Question: With `CCc1ccc2c(CN3CCN(S(=O)(=O)c4ccccc4F)CC3)cc(=O)oc2c1` as the molecule, how does the Potency read?
Answer: active: 11.2 µM

Question: For `COc1cc(CCC(=O)Nc2ccc(C)c(S(=O)(=O)N(C)C)c2)cc(OC)c1OC`, which Potency is on record?
Answer: inconclusive: 4.47 µM [inhibitor, partial curve, poor fit]
